Experimental data: the supplement of paper PMC10849652
This is one part of the list.

Sequences of proteins named here, by UniProt entry; tags and fusion partners are left off. A change or cut given only in a name is not applied to a line headed by its entry.
UniProt O95628: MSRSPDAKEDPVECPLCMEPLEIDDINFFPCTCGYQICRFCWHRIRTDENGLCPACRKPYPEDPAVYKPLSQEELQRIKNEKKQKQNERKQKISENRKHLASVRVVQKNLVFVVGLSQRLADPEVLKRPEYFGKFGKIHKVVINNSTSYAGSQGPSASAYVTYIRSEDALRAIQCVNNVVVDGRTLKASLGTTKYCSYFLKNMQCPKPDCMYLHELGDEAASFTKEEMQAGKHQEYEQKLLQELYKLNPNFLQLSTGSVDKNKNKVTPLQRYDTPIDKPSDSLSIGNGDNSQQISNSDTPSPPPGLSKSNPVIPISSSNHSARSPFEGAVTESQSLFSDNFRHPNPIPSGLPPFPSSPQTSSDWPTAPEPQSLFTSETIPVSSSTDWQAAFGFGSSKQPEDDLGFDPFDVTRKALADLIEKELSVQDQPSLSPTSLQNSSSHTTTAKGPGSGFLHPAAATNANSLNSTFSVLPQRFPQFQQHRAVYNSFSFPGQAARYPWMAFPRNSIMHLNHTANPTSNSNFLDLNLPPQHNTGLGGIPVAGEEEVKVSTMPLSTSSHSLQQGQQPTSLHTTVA
UniProt Q8N9A8: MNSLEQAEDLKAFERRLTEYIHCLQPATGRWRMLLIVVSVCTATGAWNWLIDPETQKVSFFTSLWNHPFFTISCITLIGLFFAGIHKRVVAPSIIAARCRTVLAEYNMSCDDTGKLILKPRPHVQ
UniProt O75122: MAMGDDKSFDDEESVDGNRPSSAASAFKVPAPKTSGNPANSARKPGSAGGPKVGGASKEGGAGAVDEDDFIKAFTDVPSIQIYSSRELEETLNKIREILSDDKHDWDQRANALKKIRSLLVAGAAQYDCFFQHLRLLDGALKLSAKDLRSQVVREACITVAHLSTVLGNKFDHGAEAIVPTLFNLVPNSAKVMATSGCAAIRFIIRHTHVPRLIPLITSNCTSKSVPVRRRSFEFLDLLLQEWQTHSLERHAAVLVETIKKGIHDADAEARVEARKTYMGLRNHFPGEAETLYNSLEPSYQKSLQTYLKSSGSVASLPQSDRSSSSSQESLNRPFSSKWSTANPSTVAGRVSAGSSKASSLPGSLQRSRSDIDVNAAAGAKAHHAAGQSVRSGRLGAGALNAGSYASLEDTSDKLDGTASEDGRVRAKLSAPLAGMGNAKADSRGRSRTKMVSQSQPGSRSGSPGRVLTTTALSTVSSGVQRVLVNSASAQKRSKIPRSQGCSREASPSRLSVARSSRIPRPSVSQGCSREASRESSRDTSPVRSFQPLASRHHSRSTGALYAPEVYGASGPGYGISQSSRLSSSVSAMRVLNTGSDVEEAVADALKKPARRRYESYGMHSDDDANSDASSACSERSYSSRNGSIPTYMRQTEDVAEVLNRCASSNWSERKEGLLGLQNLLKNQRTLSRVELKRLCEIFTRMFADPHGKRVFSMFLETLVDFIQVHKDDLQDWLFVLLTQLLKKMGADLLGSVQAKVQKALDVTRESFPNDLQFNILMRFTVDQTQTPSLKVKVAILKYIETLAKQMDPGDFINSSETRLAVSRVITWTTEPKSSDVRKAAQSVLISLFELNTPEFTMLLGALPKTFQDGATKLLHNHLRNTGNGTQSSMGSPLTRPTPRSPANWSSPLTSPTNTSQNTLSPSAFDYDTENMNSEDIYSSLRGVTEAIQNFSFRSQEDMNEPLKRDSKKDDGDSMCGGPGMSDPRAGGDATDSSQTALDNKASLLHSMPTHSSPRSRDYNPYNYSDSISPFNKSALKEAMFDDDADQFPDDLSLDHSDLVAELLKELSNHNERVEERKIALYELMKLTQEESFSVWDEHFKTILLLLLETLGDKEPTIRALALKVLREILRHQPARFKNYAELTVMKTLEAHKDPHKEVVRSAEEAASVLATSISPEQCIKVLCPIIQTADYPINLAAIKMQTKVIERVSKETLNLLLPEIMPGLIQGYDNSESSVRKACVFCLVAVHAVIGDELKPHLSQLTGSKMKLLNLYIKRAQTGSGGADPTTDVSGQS
UniProt Q86WW8: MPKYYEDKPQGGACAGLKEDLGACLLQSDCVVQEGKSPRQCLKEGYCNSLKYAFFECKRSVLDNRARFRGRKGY
UniProt Q86X52: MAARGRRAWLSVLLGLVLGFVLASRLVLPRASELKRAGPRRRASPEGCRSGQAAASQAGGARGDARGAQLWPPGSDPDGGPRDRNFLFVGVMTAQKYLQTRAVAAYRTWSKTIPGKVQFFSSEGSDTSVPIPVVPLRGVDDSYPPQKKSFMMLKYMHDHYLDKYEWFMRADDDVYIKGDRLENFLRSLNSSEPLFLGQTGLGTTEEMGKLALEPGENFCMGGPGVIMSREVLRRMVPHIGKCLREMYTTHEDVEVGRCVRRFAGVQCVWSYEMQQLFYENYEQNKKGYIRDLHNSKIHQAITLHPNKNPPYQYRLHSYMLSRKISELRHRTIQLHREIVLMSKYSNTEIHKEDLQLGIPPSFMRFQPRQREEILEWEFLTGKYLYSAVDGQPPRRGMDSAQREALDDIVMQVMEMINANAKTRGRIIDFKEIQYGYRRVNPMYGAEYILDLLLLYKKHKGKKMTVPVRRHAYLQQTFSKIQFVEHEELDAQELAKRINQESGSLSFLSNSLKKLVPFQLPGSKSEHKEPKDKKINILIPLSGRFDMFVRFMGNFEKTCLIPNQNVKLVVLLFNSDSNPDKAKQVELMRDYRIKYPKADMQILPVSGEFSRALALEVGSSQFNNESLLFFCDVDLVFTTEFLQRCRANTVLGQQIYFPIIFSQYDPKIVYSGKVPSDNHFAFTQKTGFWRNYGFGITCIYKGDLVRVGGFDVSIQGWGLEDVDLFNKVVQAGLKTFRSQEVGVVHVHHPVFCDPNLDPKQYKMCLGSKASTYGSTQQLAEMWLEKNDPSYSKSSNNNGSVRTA
UniProt Q8WWK9: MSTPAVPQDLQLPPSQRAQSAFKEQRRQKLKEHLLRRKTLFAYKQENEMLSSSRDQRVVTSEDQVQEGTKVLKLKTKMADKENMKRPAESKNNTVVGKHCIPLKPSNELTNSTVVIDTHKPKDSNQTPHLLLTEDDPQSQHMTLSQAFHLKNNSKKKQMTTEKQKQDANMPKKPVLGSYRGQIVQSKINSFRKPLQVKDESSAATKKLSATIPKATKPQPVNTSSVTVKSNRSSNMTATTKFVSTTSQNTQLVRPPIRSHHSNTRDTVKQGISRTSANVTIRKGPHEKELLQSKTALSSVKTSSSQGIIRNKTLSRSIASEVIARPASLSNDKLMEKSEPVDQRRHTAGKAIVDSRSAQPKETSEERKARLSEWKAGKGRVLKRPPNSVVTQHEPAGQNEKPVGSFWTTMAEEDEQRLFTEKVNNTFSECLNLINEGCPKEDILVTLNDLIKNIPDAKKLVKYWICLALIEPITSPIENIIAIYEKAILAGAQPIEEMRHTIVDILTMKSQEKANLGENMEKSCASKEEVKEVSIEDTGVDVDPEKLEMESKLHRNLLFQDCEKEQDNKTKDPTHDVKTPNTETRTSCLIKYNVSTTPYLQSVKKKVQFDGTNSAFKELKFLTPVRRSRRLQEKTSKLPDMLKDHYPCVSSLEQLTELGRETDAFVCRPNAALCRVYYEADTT
UniProt P33552, whole entry, looked up: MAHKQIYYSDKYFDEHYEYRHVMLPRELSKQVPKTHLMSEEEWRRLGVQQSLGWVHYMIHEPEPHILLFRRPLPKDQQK
UniProt Q9Y3D0: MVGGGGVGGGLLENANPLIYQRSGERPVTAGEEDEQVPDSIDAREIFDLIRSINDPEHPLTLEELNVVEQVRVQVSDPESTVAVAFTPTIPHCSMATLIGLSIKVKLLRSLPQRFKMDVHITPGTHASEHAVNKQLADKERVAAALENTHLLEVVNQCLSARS
UniProt P56747: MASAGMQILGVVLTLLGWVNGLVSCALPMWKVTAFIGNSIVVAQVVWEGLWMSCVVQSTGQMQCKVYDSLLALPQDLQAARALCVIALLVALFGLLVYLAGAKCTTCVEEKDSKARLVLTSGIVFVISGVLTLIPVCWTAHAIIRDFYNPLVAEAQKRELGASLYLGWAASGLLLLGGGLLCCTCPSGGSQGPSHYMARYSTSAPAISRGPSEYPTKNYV

What was measured:
Assay in all cases: log2 fold change, soluble protein after heating vs DMSO (PISA); higher = thermal stabilisation; K562 cells, 10 uM, 30 min; active = over 0.2 and 3.5 SD of the protein, either way, in both replicates (recomputed)
[1] = compound: NC(=O)Nc1cc(-c2cccc(F)c2)sc1C(=O)N[C@H]1CCCNC1
Outline: (§1)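 Soluble protein was quantified by TMTpro 16plex LC-MS/MS after channel sums were equalised. It was obtained as the supernatant after 21,000xg for 90 min from pooled aliquots of K562 cells (2×10^6 cells/mL, 10 μM compound, 30 min) heated for 3 min across 48°C-58°C and extracted in PBS with 0.5% NP-40 at 4°C. Thermal stability values are relative to control samples and come from duplicates. They are given as log2 fold changes.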

entinostat = compound: Nc1ccccc1NC(=O)c1ccc(CNC(=O)OCc2cccnc2)cc1 [entinostat]
Outline: as §1

[2] = compound: O=C1NC(=O)C(c2cnc3ccccn23)=C1c1cn2c3c(cc(F)cc13)CN(C(=O)N1CCCCC1)CC2
Outline: as §1

[3] = compound: NC(=O)c1cnc(N[C@@H]2CCCC[C@@H]2N)nc1Nc1cccc(-n2nccn2)c1
Outline: as §1

[4] = compound: NC1(c2ccc(-c3nc4ccn5c(=O)[nH]nc5c4cc3-c3ccccc3)cc2)CCC1
Outline: as §1

[5] = compound: NCC(=O)Nc1ccc(-n2nc(C(F)(F)F)cc2-c2ccc3c(ccc4ccccc43)c2)cc1
Outline: as §1

vorinostat = compound: O=C(CCCCCCC(=O)Nc1ccccc1)NO [vorinostat]
Outline: as §1

citarinostat = compound: O=C(CCCCCCNC(=O)c1cnc(N(c2ccccc2)c2ccccc2Cl)nc1)NO [citarinostat]
Outline: as §1

silmitasertib = compound: O=C(O)c1ccc2c(c1)nc(Nc1cccc(Cl)c1)c1ccncc12 [silmitasertib]
Outline: as §1

[6] = compound: c1cc(OCCN2CCCCC2)cc(-c2n[nH]c3ccc(-c4nnc[nH]4)cc23)c1
Outline: as §1

entospletinib = compound: c1cn2cc(-c3ccc4cn[nH]c4c3)nc(Nc3ccc(N4CCOCC4)cc3)c2n1 [entospletinib]
Outline: as §1

Measured: log2 fold change

COL12A1 (UniProt Q99715)
inactive: [1] -0.215 | entinostat 0.036 | [2] -0.132

CNOT4 isoform 9 (UniProt O95628)
inactive: [3] -0.115 | [4] -0.077 | [5] 0.11 | vorinostat -0.003 | citarinostat -0.038 | silmitasertib 0.024 | [6] 0.178

CNEP1R1 isoform 2 (UniProt Q8N9A8)
inactive: [3] 0.07 | [5] -0.101

CLASP2 (UniProt O75122)
inactive: [3] -0.049 | [4] 0.046 | citarinostat 0.143 | silmitasertib 0.083 | [6] 0.08

COA5 (UniProt Q86WW8)
inactive: [3] -0.018 | [5] 0.009 | [2] 0.149

CHSY1 (UniProt Q86X52)
inactive: [2] 0.279

CKAP2 (UniProt Q8WWK9)
inactive: [1] -0.073 | [4] 0.141 | entinostat 0.116 | silmitasertib 0.031 | [2] 0.359

CKS2 (UniProt P33552)
inactive: [3] -0.021 | [4] -0.039 | vorinostat 0.28 | citarinostat -0.092 | silmitasertib 0.065 | [6] -0.071

CIAO2B (UniProt Q9Y3D0)
inactive: [1] 0.026 | [4] -0.224 | entinostat 0.073 | citarinostat -0.02 | silmitasertib 0.17 | [6] -0.058 | entospletinib 0.093

CLDN6 (UniProt P56747)
inactive: vorinostat 0.297
